Source: patent US11156615B2 (priority 2015, dated 2021)

B1: ttGGBP182C.2.0: affinity-tuning mutant, 182C background (R91K, Q148E), SEQ ID NO: 88 and 298 (protein)
chain: MKQLNIGVAIYKFDDTFMTGVRNAMTAEAQGKAKLNMVDSQNSQPTQNDQVDLFITKKMNALAINPVDRTAAGTIIDKAKQANIPVVFFNKEPLPEDMKKWDKVYYVGAKAEQSGILQGQIMADYWKAHPEADKNHDGVMQYVMLMGEPGHQDAILRTQYSIQTVKDAGIKVQELAKDYANCDRVTAHDKMAAWLSSFGDKIEAVFANNDDMALGAIEALKSAGYFTGNKYIPVVGVDATAPGIQAIKDGTLLGTVLNDAKNQAKATFNIAYELAQGITPTKDNIGYDITDGKYVWIPYKKITKDNISDAEQGGSHHHHHH
modifications: ttGGBP182C.2.0 (affinity-tuning mutant, 182C background (Table 6) with signal peptide replaced with M and GGSHHHHHH at C-terminus)
B2: ttGGBP182C.2.1: affinity-tuning mutant, 182C background, SEQ ID NO: 89 (protein)
chain: MKQLNIGVAIYKFDDTFMTGVRNAMTAEAQGKAKLNMVDSQNSQPTQNDQVDLFITKKMNALAINPVDRTAAGTIIDKAKQANIPVVFFNKEPLPEDMKKWDKVYYVGAKAEQSGILQGQIMADYWKAHPEADKNHDGVMQYVMLMGEPGHQDSILRTQYSIQTVKDAGIKVQELAKDYANCDRVTAHDKMAAWLSSFGDKIEAVFANNDDMALGAIEALKSAGYFTGNKYIPVVGVDATAPGIQAIKDGTLLGTVLNDAKNQAKATFNIAYELAQGITPTKDNIGYDITDGKYVWIPYKKITKDNISDAEQGGSHHHHHH
modifications: ttGGBP182C.2.1 (affinity-tuning mutant, 182C background (Table 6) with signal peptide replaced with M and GGSHHHHHH at C-terminus)
B3: ttGGBP182C.2.3: affinity-tuning mutant, 182C background, SEQ ID NO: 90 (protein)
chain: MKQLNIGVAIYKFDDTFMTGVRNAMTAEAQGKAKLNMVDSQNSQPTQNDQVDLFITKKMNALAINPVDRTAAGTIIDKAKQANIPVVFFNKEPLPEDMKKWDKVYYVGAKAEQSGILQGQIMADYWKAHPEADKNHDGVMQYVMLMGEPGHQDNILRTQYSIQTVKDAGIKVQELAKDYANCDRVTAHDKMAAWLSSFGDKIEAVFANNDDMALGAIEALKSAGYFTGNKYIPVVGVDATAPGIQAIKDGTLLGTVLNDAKNQAKATFNIAYELAQGITPTKDNIGYDITDGKYVWIPYKKITKDNISDAEQGGSHHHHHH
modifications: ttGGBP182C.2.3 (affinity-tuning mutant, 182C background (Table 6) with signal peptide replaced with M and GGSHHHHHH at C-terminus)
B4: ttGGBP182C.2.5: affinity-tuning mutant, 182C background, SEQ ID NO: 92 (protein)
chain: MKQLNIGVAIYKFDDTFMTGVRNAMTAEAQGKAKLNMVDSQNSQPTQNDQVDLFITKKMNALAINPVDRTAAGTIIDKAKQANIPVVFFNKEPLPEDMKKWDKVYYVGAKAEQSGILQGQIMADYWKAHPEADKNHDGVMQYVMLMGEPGQQDAILRTQYSIQTVKDAGIKVQELAKDYANCDRVTAHDKMAAWLSSFGDKIEAVFANNDDMALGAIEALKSAGYFTGNKYIPVVGVDATAPGIQAIKDGTLLGTVLNDAKNQAKATFNIAYELAQGITPTKDNIGYDITDGKYVWIPYKKITKDNISDAEQGGSHHHHHH
modifications: ttGGBP182C.2.5 (affinity-tuning mutant, 182C background (Table 6) with signal peptide replaced with M and GGSHHHHHH at C-terminus)
B5: ttGGBP182C.2.6: affinity-tuning mutant, 182C background, SEQ ID NO: 93 (protein)
chain: MKQLNIGVAIYKFDDTFMTGVRNAMTAEAQGKAKLNMVDSQNSQPTQNDQVDLFITKKMNALAINPVDRTAAGTIIDKAKQANIPVVFFNKEPLPEDMKKWDKVYYVGAKAEQSGILQGQIMADYWKAHPEADKNHDGVMQYVMLMGEPGNQDAILRTQYSIQTVKDAGIKVQELAKDYANCDRVTAHDKMAAWLSSFGDKIEAVFANNDDMALGAIEALKSAGYFTGNKYIPVVGVDATAPGIQAIKDGTLLGTVLNDAKNQAKATFNIAYELAQGITPTKDNIGYDITDGKYVWIPYKKITKDNISDAEQGGSHHHHHH
modifications: ttGGBP182C.2.6 (affinity-tuning mutant, 182C background (Table 6) with signal peptide replaced with M and GGSHHHHHH at C-terminus)
B6: ttGGBP182C.2.7: affinity-tuning mutant, 182C background, SEQ ID NO: 94 (protein)
chain: MKQLNIGVAIYKFDDTFMTGVRNAMTAEAQGKAKLNMVDSQNSQPTQNDQVDLFITKKMNALAINPVDRTAAGTIIDKAKQANIPVVFFNKEPLPEDMKKWDKVYYVGAKAEQSGILQGQIMADYWKAHPEADKNHDGVMQYVMLMGEPGFQDAILRTQYSIQTVKDAGIKVQELAKDYANCDRVTAHDKMAAWLSSFGDKIEAVFANNDDMALGAIEALKSAGYFTGNKYIPVVGVDATAPGIQAIKDGTLLGTVLNDAKNQAKATFNIAYELAQGITPTKDNIGYDITDGKYVWIPYKKITKDNISDAEQGGSHHHHHH
modifications: ttGGBP182C.2.7 (affinity-tuning mutant, 182C background (Table 6) with signal peptide replaced with M and GGSHHHHHH at C-terminus)
B7: ttGGBP182C.2.8: affinity-tuning mutant, 182C background, SEQ ID NO: 95 (protein)
chain: MKQLNIGVAIYKFDNTFMTGVRNAMTAEAQGKAKLNMVDSQNSQPTQNDQVDLFITKKMNALAINPVDRTAAGTIIDKAKQANIPVVFFNKEPLPEDMKKWDKVYYVGAKAEQSGILQGQIMADYWKAHPEADKNHDGVMQYVMLMGEPGHQDAILRTQYSIQTVKDAGIKVQELAKDYANCDRVTAHDKMAAWLSSFGDKIEAVFANNDDMALGAIEALKSAGYFTGNKYIPVVGVDATAPGIQAIKDGTLLGTVLNDAKNQAKATFNIAYELAQGITPTKDNIGYDITDGKYVWIPYKKITKDNISDAEQGGSHHHHHH
modifications: ttGGBP182C.2.8 (affinity-tuning mutant, 182C background (Table 6) with signal peptide replaced with M and GGSHHHHHH at C-terminus)
B8: ttGGBP182C.4: affinity-tuning mutant, 182C background, SEQ ID NO: 98 (protein)
chain: MKQLNIGVAIYKFDDTFMTGVRNAMTAEAQGKAKLNMVDSQNSQPTQNDQVDLFITKKMNALAINPVDRTAAGTIIDKAKQANIPVVFFNREPLPEDMKKWDKVYYVGAKAEQSGILQGQIMADYWKAHPEADKNHDGVMQYVMLMGEPGHQDAILRTQYSIQTVKDAGIKVQELAKDYANCDRVTAHDKMAAWLSSFGDKIEAVFANNDDMALGAIEALKSAGYFTGNKYIPVVGVDATAPGIQAIKDGTLLGTVLNDAKNQAKATFNIAYELAQGITPTKDNIGYDITDGKYVWIPYKKITKDNISDAEQGGSHHHHHH
modifications: ttGGBP182C.4 (affinity-tuning mutant, 182C background (Table 6) with signal peptide replaced with M and GGSHHHHHH at C-terminus)
B9: ttGGBP182C.5: affinity-tuning mutant, 182C background, SEQ ID NO: 99 (protein)
chain: MKQLNIGVAIYKFDDTFMTGVRNAMTAEAQGKAKLNMVDSQNSQPTQNDQVDLFITKKMNALAINPVDPTAAGTIIDKAKQANIPVVFFNREPLPEDMKKWDKVYYVGAKAEQSGILQGQIMADYWKAHPEADKNHDGVMQYVMLMGQPGHPDAILRTQYSIQTVKDAGIKVQELAKDYANCDRVTAHDKMAAWLSSFGDKIEAVFANNDDMALGAIEALKSAGYFTGNKYIPVVGVDATAPGIQAIKDGTLLGTVLNDAKNQAKATFNIAYELAQGITPTKDNIGYDITDGKYVWIPYKKITKDNISDAEQGGSHHHHHH
modifications: ttGGBP182C.5 (affinity-tuning mutant, 182C background (Table 6) with signal peptide replaced with M and GGSHHHHHH at C-terminus)

Assay: Glucose-dependent fluorescence emission intensity spectra of conjugates (Nanodrop3300)
Format: biochemical
Details: Acrylodan conjugate; Nanodrop, room temperature
Source text: Semi-synthetic FRSs were engineered by site-specifically attaching thiol-reactive, environmentally sensitive fluorophores that respond to ligand-mediated conformational changes. Identification of FRS candidates that are useful for sensing applications comprises three steps: • 1. Cysteine scan. Mutant glucose-binding proteins containing single cysteines are constructed for site-specific attachment of thiol-reactive fluorophores. […] Candidate positions fall into three classes: endosteric, replacing a residue that contacts the ligand directly; peristeric, located at the rim of the binding site; allosteric (Marvin et al. 1997 Proc Natl Acad Sci USA, 94, 4366-71; Marvin 1998 J Am Chem Soc, 120, 7-11), located outside the binding site at sites that undergo local structural changes in concert with the hinge-bending motion. • 2. Fluorophore screening. Thiol-reactive, environmentally sensitive fluorophores are attached to each cysteine mutant prepared in step 1. • 3. Evaluation of the glucose-mediated change of all the fluorescent conjugates prepared in step 2. Responses to ligand binding in which there is both a change in fluorescence emission intensity and spectral shape was essential for chemometric applications, because such changes enable ratiometric measurements. Changes in spectral shape typically are accompanied by a shift in the wavelength of the emission intensity maxima. Three classes of fluorescent responses are possible: • i. No response. • ii. Monochromatic response (emission intensity increases or decreases without a change in spectral shape) • iii.

Compared with B1, B2 is higher in “Emission wavelength λ1 (optimal ratiometry wavelength)” value: 475 nm for the first, 480 nm for the second.

Compared with B3, B4 is higher in “Emission wavelength λ1 (optimal ratiometry wavelength)” value: 470 nm for the first, 477 nm for the second.

B5 and B6 are the same in “Emission wavelength λ1 (optimal ratiometry wavelength)” value: 475 nm for the first, 475 nm for the second.

First: B7
Second: B8
The “Emission wavelength λ1 (optimal ratiometry wavelength)” value of the first is lower: 474 nm for the first, 475 nm for the second.

In the case of B9, the “Emission wavelength λ1 (optimal ratiometry wavelength)” value is reported as 477 nm.

First: B1
Second: B2
The “Emission wavelength λ2 (optimal ratiometry wavelength)” value of the first is lower: 545 nm for the first, 552 nm for the second.

First: B3
Second: B4
The “Emission wavelength λ2 (optimal ratiometry wavelength)” value of the first is lower: 537 nm for the first, 542 nm for the second.

Compared with B5, B6 is higher in “Emission wavelength λ2 (optimal ratiometry wavelength)” value: 537 nm for the first, 545 nm for the second.

B7 and B8 are the same in “Emission wavelength λ2 (optimal ratiometry wavelength)” value: 542 nm for the first, 542 nm for the second.

In the case of B9, the “Emission wavelength λ2 (optimal ratiometry wavelength)” value is reported as 535 nm.
